Measured values from PubChem BioAssay AID1259415 (National Center for Advancing Translational Sciences (NCATS), 2018).
The campaign covered roughly 410,000 compounds. About 18,000 (4.4%) were called active. Inconclusive means that the source gave no clear call. Such entries were picked first, then a sample of the others. No stated cut-off is given here; in the data, active means activity change below about -60%; inconclusive means no clear call, values can overlap the other calls; inactive means above about -39%. More than one record can exist for a structure, and the calls need not agree.

assay: qHTS Assay for inhibitors of the human cytomegalovirus (HCMV); conditions: HFF cells, HCMV-luciferase reporter, 72 h; at 57.5 µM; active compounds read low
In short: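 Human foreskin fibroblasts infected with luciferase-reporter HCMV at MOI 1 PFU/cell, compounds at two doses. Luciferase measured 72 h post infection; normalized to buffer-only basal and Salinomycin (10uM) controls.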
On the % scale 0 is the no-effect control and ±100 the full control effect.

Row | Structure (SMILES) | activity change, negative = inhibition
1 | CC(=O)NC1C(Oc2ccc3c(C)cc(=O)oc3c2)OC(COC(C)=O)C(OC(C)=O)C1OC(C)=O (stereo not drawn) | inactive: -33.5%
2 | CCN(CC(=O)NCCc1ccccc1)S(=O)(=O)c1ccc(C)cc1 | inconclusive: -47.7%
3 | Cc1cc(C(=O)NCCc2ccc(Cl)cc2)no1 | inconclusive: -45.7%
4 | CCOc1ccc(NC(=O)Cn2nc(-c3ccccc3Cl)n(CC)c2=S)cc1 | active: -61.6%
5 | COc1ccc(OC)c2sc(N3CCc4ccccc4C3)nc12 | active: -75.9%
6 | O=C(NCCOc1ccccc1)c1ccccc1Cl | inconclusive: -44.2%
7 | CN(CCc1ccccc1)C(=O)c1ccc(NC(=O)Cc2ccc(NC(=O)C3CCCN(C(=O)CCc4ccccc4)C3)cc2)cc1 (stereo not drawn) | active: -70.8%
8 | COc1cccc(NC(=O)c2oc3ccccc3c2NC(=O)C(C)(C)C)c1 | inconclusive: -45.5%
9 | S=C(NCc1ccncc1)NC1CCCC1 | inconclusive: -53.7%
10 | Cc1cccc(C(=O)NC(=S)Nc2ccc3[nH]c(=O)[nH]c3c2)c1 | inconclusive: -54.3%
11 | O=C(c1ccc(N2CCCCC2)c([N+](=O)[O-])c1)N(Cc1ccccc1)c1ccccn1 | inconclusive: -41.7%
12 | CC[C@@H](NCCCn1cnc2c(SC)ncnc21)c1ccccc1 | inconclusive: -44%
13 | O=C(c1ccccc1)N1CCN(C(=O)c2ccccc2)c2ccccc21 | active: -99.8%
14 | O=C(Nc1cccc(Cl)c1)Nc1ccnc(-c2cccnc2)n1 | inconclusive: -51.7%
15 | O=C(C[C@H]1C=C[C@H](NC(=O)Nc2ccccc2F)[C@@H](CO)O1)NCc1ccc(-c2ccccc2)cc1 | inconclusive: -48.2%
16 | Cc1noc(/C=C/c2cccnc2)c1[N+](=O)[O-] | active: -98%
17 | CN1CCN(CCC(=O)Nc2ccc(C3CCCC3)cc2)CC1 | inconclusive: -47.6%
18 | Cc1ccc2c(c1)N=C(c1ccc(Cl)cc1)CO2 | active: -102%
19 | Cc1ccc(NC(=O)C2CCCN2C(=O)NC2CCCCC2)cc1C (stereo not drawn) | inconclusive: -41.2%
20 | COc1ccc(-c2cc(C3CCN(Cc4cccc(C(F)(F)F)c4)CC3)[nH]n2)cc1 | inconclusive: -59%
21 | CCc1nc(SCc2cccnc2)c2c(=O)n(C)c(=O)n(C)c2n1 | inconclusive: -43.8%
22 | Cc1onc(-c2ccccc2)c1C(=O)N/N=C/C(Br)=C/c1ccccc1 | active: -70.3%

3 compounds drawn at random from those above, as already listed:
Row | Structure (SMILES) | activity change, negative = inhibition
6 | O=C(NCCOc1ccccc1)c1ccccc1Cl | inconclusive: -44.2%
15 | O=C(C[C@H]1C=C[C@H](NC(=O)Nc2ccccc2F)[C@@H](CO)O1)NCc1ccc(-c2ccccc2)cc1 | inconclusive: -48.2%
8 | COc1cccc(NC(=O)c2oc3ccccc3c2NC(=O)C(C)(C)C)c1 | inconclusive: -45.5%

Following part

Row | Structure (SMILES) | activity change, negative = inhibition
23 | COc1ccc(/C=C(/NC(=O)c2cccs2)C(=O)NCc2ccco2)cc1OC | inconclusive: -41.6%
24 | COc1ccc(C)cc1NC(=O)NC1CCCCCCC1 | inconclusive: -50.3%
25 | COc1cccc(-c2nn(-c3ccc(C)cc3)cc2C(=O)NCC(c2cccs2)N2CCOCC2)c1 (stereo not drawn) | inconclusive: -43.1%
26 | NC(=O)c1ccc(NC(=O)COc2ccc([N+](=O)[O-])cc2Cl)cc1 | inconclusive: -43.2%
27 | O[C@H]1CN(CC2CCCCC2)[C@@H](c2ccc(Cl)cc2)C[C@@H]1n1cc(-c2ccc(F)cc2)nn1 | inactive: -11.7%
28 | Cc1ccsc1/C=N/NC(=O)CNC(=O)c1ccccc1 | inactive: 0%
29 | CCC1(O)C(=O)OCc2c1cc1n(c2=O)Cc2cc3c(N)cccc3nc2-1 (stereo not drawn) | active: -98.4%
30 | CCOC(=O)C1CCN(c2c(Nc3ccc4c(c3)OCCO4)c(=O)c2=O)CC1 | inconclusive: -40.9%
31 | CCN(CC)S(=O)(=O)c1ccc2c(c1)nc(CCC(=O)O)n2C | inactive: -31.1%
32 | CCOC(=O)C1CCN(C(=O)c2ccc(C)o2)CC1 | inconclusive: -57.8%
33 | Cc1cc(N2CCCCC2)nc2ccc(NC(=O)c3cccc(F)c3)cc12 | active: -80.4%
34 | O=C1CN(C(=O)Cn2ncc(Cl)c(Cl)c2=O)c2ccccc2N1 | active: -94.9%
35 | COc1ccc(C2C(=O)N(C3CCC(C)CC3)CC(=O)N2CCc2ccccc2)cc1OC (stereo not drawn) | inconclusive: -46.2%
36 | O=C(NC(=S)Nc1cccc2[nH]ncc12)c1ccccc1 | active: -61.6%
37 | Cc1ccc(-n2nc3c(=O)n(CCCC(=O)NCc4ccccc4Cl)nc(C)c3c2C)cc1 | inconclusive: -58.6%
38 | FC(F)(F)c1ccc(Sc2nnc(-c3cccs3)n2CC2CCCO2)nc1 (stereo not drawn) | inconclusive: -42.3%
39 | Cc1ccc(CNc2ncnc3cc(Cl)ccc23)cc1 | inconclusive: -49.5%
40 | O=C(CCC(=O)OCCOc1ccccc1)OCCOc1ccccc1 | active: -97.9%
41 | O=C(Nc1ccccc1)N1CCN(C2c3ccccc3-c3ccccc32)CC1 | inconclusive: -44.4%
42 | CCOCc1cnc(C)nc1NCC(=O)c1c(C)[nH]c2ccccc12 | active: -79.7%
43 | Cc1noc(C)c1C(=O)NCc1ccccc1F | active: -68.9%
44 | COc1cccc(-c2cc3nc(NCc4ccc5occc5c4)n(C)c(=O)c3s2)c1 | inconclusive: -46.2%

Row | Structure (SMILES) | activity change, negative = inhibition
45 | Cn1cc(CN2CCCC(C(=O)Nc3ccc(-c4cccc(F)c4)cc3)C2)cn1 (stereo not drawn) | active: -71.7%
46 | CS(=O)(=O)Nc1cccc(NC(=O)C2Cc3c(-c4cccc(F)c4)ccnc3O2)c1 (stereo not drawn) | active: -77.9%
47 | Cc1c(C)n(Cc2ccc(Cl)cc2)c2ccc(C(=O)NCCc3ccc(S(N)(=O)=O)cc3)cc12 | inactive: 0%
48 | O=C(Nc1cc(C(F)(F)F)ccc1Cl)c1cccnc1 | inconclusive: -44.9%
49 | C#CCN1C(=O)CC[C@@H](S(=O)(=O)c2ccccc2)[C@@H]1c1ccccc1 | inactive: 0.869%
50 | O=C(CSc1nnc2c3ccccc3c3ccccc3c2n1)Nc1ccccc1F | active: -87.8%
51 | Cc1ccc(N(CN2C(=O)C3C4CCC(C4)C3C2=O)C(=O)c2ccco2)cc1 (stereo not drawn) | inconclusive: -46.7%
52 | Cc1cc(=O)c2cc(Br)ccc2n1CC(=O)NCc1ccccc1 | inactive: 17.4%
53 | COc1ccc(NC(=O)CSc2nc(=O)n(CCN(C)C)c3c2CCCC3)cc1 | inconclusive: -40.7%
54 | COc1ccc(O)cc1CN1CCN(c2ncc(Cc3ccccc3)cn2)CC1 | inconclusive: -41.6%
55 | Cc1cc(C)cc(-n2ccn(CC(=O)Nc3ccccc3C(F)(F)F)c(=O)c2=O)c1 | inactive: -16.6%
56 | CCOC(=O)C1(Cc2ccc(Cl)cc2)CCN(Cc2cnc(N)nc2)CC1 | inconclusive: -44.8%
57 | O=C(/C=C/c1cccc(Cl)c1)NCCCN1CCOCC1 | inconclusive: -43%
58 | Cc1ccc(N2CC(C)Cn3c2nc2c3c(=O)n(CC(=O)O)c(=O)n2C)cc1 (stereo not drawn) | inactive: 13.7%
59 | COc1ccc(NS(=O)(=O)c2cccc(C(=O)N(C)CC(=O)Nc3ccc(C)cc3)c2)cc1 | inconclusive: -41.3%
60 | COc1ccc(N2CCN(C(=O)c3ccc(CS(=O)(=O)c4ccc(Br)cc4)o3)CC2)cc1 | active: -83.8%
61 | Cc1cccc(C)c1NC(=S)N=Nc1c(O)n(C)c2ccc(S(=O)(=O)N3CCOCC3)cc12 | inactive: -28.8%
62 | Cc1cccc(NC(=S)N=Nc2c(O)[nH]c3ccccc23)c1 | inactive: -25.4%
63 | Cc1ccc(SCC(=O)OCn2nnc3ccccc3c2=O)cc1C | inconclusive: -48.1%
64 | Cc1ccc(/C=N/n2c(C3CCCCC3)n[nH]c2=S)cc1 | inconclusive: -44.3%
65 | COc1ccccc1Sc1nc(-c2ccccc2)ncc1OC | inconclusive: -41.1%
66 | CCC(=O)N1CCc2cc(Br)cc(S(=O)(=O)NCc3ccc(Cl)cc3)c21 | inactive: -9.15%

Row | Structure (SMILES) | activity change, negative = inhibition
67 | Cn1cnnc1SCC(=O)c1c(N)n(Cc2ccccc2)c(=O)n(C)c1=O | active: -64.3%
68 | Cc1ccc(C)c(CNS(=O)(=O)c2c(C(=O)N3CCCC3)c(C)n(C)c2C)c1 | inconclusive: -56.7%
69 | Cc1ccc(C(=O)N/C(=C\c2ccccc2)C(=O)NCCCn2ccnc2)cc1 | inconclusive: -42.9%
70 | CC1CCC2(CC1)NC(=O)N(CC(=O)c1ccc(CNC(=O)C(C)(C)C)s1)C2=O (stereo not drawn) | inconclusive: -53.2%
71 | Cc1ccc(NS(=O)(=O)c2ccc3[nH]c4c(c3c2)CCCCCC4)cc1Cl | active: -83.2%
72 | CCOC(=O)c1sc(NC(=O)c2cc(CC)on2)c(C(=O)OCC)c1C | inactive: -2.71%
73 | O=C(C1CC1)N1CCN=C1SCc1ccccc1 | inconclusive: -50.2%
74 | O=C1CC(/C=C/c2ccccn2)=Nc2ccccc2N1 | inconclusive: -44.7%
75 | O=C(Cn1ccn(-c2ccc(F)cc2)c(=O)c1=O)NCCc1ccccc1 | inconclusive: -55.5%
76 | CC(=O)N1c2ccc(S(=O)(=O)N3CCN(c4ccc(C)cc4C)CC3)cc2CC1C (stereo not drawn) | inconclusive: -44.1%
77 | Cc1cccc(C(=O)Nc2nnc(-c3ccncc3)o2)c1 | inactive: 19%
78 | COc1ccc(CN(C)C2c3ccccc3-c3ccccc32)cc1 | inconclusive: -42.7%
79 | COc1ccccc1N(CC(=O)NCCSCc1ccccc1Cl)S(C)(=O)=O | inconclusive: -49.8%
80 | CC(O)CNc1nc2ccccc2n1-c1ncnc2sc3c(c12)CCC3 (stereo not drawn) | inactive: -27%
81 | O=S(=O)(NC1CCc2ccccc21)c1ccccc1 (stereo not drawn) | inconclusive: -53.9%
82 | CC(C)(C)OC(=O)[C@H](Cc1ccccc1)NC(=O)c1[nH]cnc1C(=O)Nc1ccccc1F | inconclusive: -46.3%
83 | COc1ccc(C(=O)O/N=C(\N)Cc2ccc(Cl)cc2)cc1OC | inconclusive: -58.2%
84 | O=C(c1cc(-c2ccc(Br)cc2)n[nH]1)N1CCN(S(=O)(=O)c2ccc(Br)cc2)CC1 | inconclusive: 0%
85 | Cc1nnc(SCC(=O)c2ccc(Cl)cc2)s1 | inconclusive: -54.7%
86 | c1ccc2c(-c3cc(C4CCNCC4)[nH]n3)cccc2c1 | inactive: -33.7%
87 | CCOc1ccc(/C=N/NC(=O)c2cc3ccccc3cc2OC)cc1 | inconclusive: -46.6%
88 | CS(=O)(=O)N(CC(=O)NCc1ccc2c(c1)OCO2)Cc1ccc(Cl)cc1 | inconclusive: -49.7%
